# Reference: PubChem BioAssay AID2685 (National Center for Advancing Translational Sciences (NCATS), 2010)
# This is one part of the list. Shown are side measurements of this screen, not its main read-out; they come without a call. The list favours compounds with an active or inconclusive main result. Words in brackets tell the shape of the fitted curve; partial curves, single points and poor fits give uncertain potencies.
# Assay: qHTS Assay for Lipid Storage Modulators in Drosophila S3 Cells;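 on cell number change: cells counted by Cell Tracker Red CMTPX staining in the red channel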
# Conditions: BODIPY lipid droplet fluorescence, 18-24 h; for cell number change: measured here: cell count max response, cells fed with added oleic acid
# Summary of the method: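 Laser-scanning cytometry quantifies lipid droplet accumulation (500–530 nm total intensity; droplet/cell object ratio) in oleic acid-fed (400 uM added) Drosophila S3 cells treated with a concentration series. 20 uM Triacsin C defined 100% inhibition.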
# [1] = measured here: cell number channel AC50, cells fed with added oleic acid
# [2] = measured here: lipid fluorescence (Fed channel) AC50, cells fed with added oleic acid
Compound,cell number change,AC50 [1],AC50 [2]
CS(=O)(=O)c1nc(-c2ccccc2)c(-c2ccccc2)[nH]1,31.9%,"5800 nM [rising, full curve, poor fit]","5800 nM [rising, full curve]"
O=C(c1ccc(CS(=O)Cc2ccc(Cl)cc2)o1)N1CCN(c2ccccc2)CC1 (stereo unspecified),49.7%,"16400 nM [rising, single point]",–
COc1ccc(CNc2ccc([N+](=O)[O-])cc2C)cc1,30%,–,"23100 nM [rising, single point]"
COCc1nnc(SCC(=O)Nc2cccc(Cl)c2C)n1-c1ccccc1,-1.82%,–,"651 nM [rising, single point]"
c1cncc(-c2nc(NCCCn3ccnc3)c3ccccc3n2)c1,–,–,"116 nM [rising, full curve, poor fit]"
O=C(Nc1nc2ccccc2s1)c1cc(-c2ccccc2)nn1-c1ccccc1,8.24%,"1840 nM [rising, partial curve]","2060 nM [rising, partial curve]"
CC/C(=N\NC(=O)c1cc(C)nc2ccccc12)c1ccc(C)s1,–,–,"29100 nM [rising, single point]"
CN1CCN(c2ccc(NC(=O)c3ccc(Cl)cc3Cl)cc2)CC1,15.2%,–,"580 nM [rising, single point]"
O=C(Cn1[nH]c(=O)c2ccccc2c1=O)NC1CCCCCC1,–,–,"2910 nM [rising, partial curve]"
Cc1cnc(C(=O)OCC(=O)NCCCc2ccccc2)cn1,–,–,"16400 nM [falling, partial curve]"
CCN(C(C)=O)c1cccc2ccccc12,-8.12%,–,–
CCCOc1cccc(C(=O)NC(=S)Nc2cccc(NC(=O)c3ccccc3Cl)c2)c1,-22.2%,–,"6510 nM [rising, single point]"
CCc1ccc(S(=O)(=O)N2c3ccc(C)cc3C3CN(C)CCC32)cc1 (stereo unspecified),3.94%,–,"18400 nM [falling, single point]"
O=C(CN1CCOCC1)Nc1ccccc1-c1ccccc1,24.9%,"146 nM [rising, full curve, poor fit]",–
CN(CCC#N)S(=O)(=O)c1ccc2c(c1)c(=O)n(C)c(=O)n2C,-3.91%,"1160 nM [falling, full curve]",–
CC(C)(C)NC(=O)CN(CC1CCCO1)C(=O)CNS(=O)(=O)c1ccc(F)cc1 (stereo unspecified),–,–,"206 nM [falling, single point]"
Cc1cccc(C)c1NC(=O)c1ccc(-n2cnnn2)cc1,-60.7%,"3660 nM [falling, partial curve, poor fit]","92 nM [falling, full curve, poor fit]"

# Just AC50 [2], for some of the entries so far:
Compound | AC50 [2]
CCCOc1cccc(C(=O)NC(=S)Nc2cccc(NC(=O)c3ccccc3Cl)c2)c1 | 6510 nM [rising, single point]
CCc1ccc(S(=O)(=O)N2c3ccc(C)cc3C3CN(C)CCC32)cc1 (stereo unspecified) | 18400 nM [falling, single point]
